From paper PMC12040169 (PLOS Biology, 2025)
Some of the results follow.

system: T1, CTL2-GFP (C. trachomatis L2/434/Bu, GFP-expressing); parameters: species or system HeLa; Intracellular C. trachomatis growth in HeLa cells, bulk GFP fluorescence relative to DMSO; details: bulk GFP, single well; 28.5 h, 10 µM; inhibitor
T1 construct: L2/434/Bu, GFP-expressing

Compound	% of control remaining
Cc1csc(Nc2cccc(C3CCCN3C(=O)CCOc3ccccc3C)n2)n1 (stereo not shown) [CBK285977]	102.862%
CCC(C)NC(=O)c1ccc2nccnc2c1 (stereo not shown) [CBK268921]	109.979%
Cn1nc(C(Cc2ccccc2)NC(=O)c2ccco2)c2cccnc21 (stereo not shown) [CBK285223]	153.305%
CCCNc1cncc(-c2ccc(OCC)cc2)n1 [CBK065845]	77.9008%
COc1ccc(C)cc1S(=O)(=O)N(CC(=O)O)c1ccc(Cl)c(Cl)c1 [CBK269095]	108.216%
COc1ccc(CCC(=O)Nc2cc(N3CCNCC3)ncn2)cc1 [CBK004231T]	138.785%
Cc1cnc(CNC(=O)N2CCN(c3ccccc3)CC2)cn1 [CBK155174]	96.4095%
CC(C)(C)OC(=O)N1CCCN(Cc2nnc(-c3ccco3)o2)CC1 [CBK305271]	123.765%
COc1ccc(N2CCN(C(=O)CCC(F)(F)F)CC2)cc1 [CBK091419]	102.315%
c1ccc2cc(-c3cc(Nc4ccc5[nH]ccc5c4)ncn3)ccc2c1 [CBK090853]	160.166%
CN(C)C(C)(C)COc1ncccc1OCCO [CBK042184]	112.978%
COCC(=O)N1CCC(Cc2ccc(-c3cccc(C)c3)cc2)(C(=O)NC(C)C)CC1 [CBK285759]	134.694%
O=C1CCCCC1SCn1nnc2ccccc21 (stereo not shown) [CBK011412]	110.627%
C/C(=N\O)c1ccc(S(N)(=O)=O)cc1 [CBK007871]	118.036%
Cc1ccc(N2C(=O)CSC23C(=O)Nc2ccc(Br)cc23)cc1 (stereo not shown) [CBK093453]	114.213%
COC(=O)c1cc(Cl)c(NC(=S)NC(=O)C(C)(C)C)cc1OC [CBK020937]	118.014%
CC(C)(CN)CN(Cc1c[nH]c(-c2ccccc2)n1)C(=O)Nc1ccc(C(C)(C)C)cc1 [CBK002462C]	35.016%
CCC(CC)c1cc([C@H]2CN3CC[C@H]2C[C@@H]3CO)nc(-c2ccncc2)n1 [CBK289118]	145.683%
CC(C)NC(=O)Nc1ccccc1-c1ncn(C)n1 [CBK020922]	110.928%
Cc1ccc(S(=O)(=O)N(CC(=O)Nc2cccnc2)c2cccc(Br)c2)cc1 [CBK264094]	110.087%
C[C@H](Nc1nc(-c2cccc(C(N)=O)c2)cnc1N)c1ccccc1 [CBK063715]	131.662%
COc1ccc2c3c([nH]c2c1)C(C)N(CCC(=O)NN)CC3 (stereo not shown) [CBK261726]	110.668%
CC(C)(C)OC(=O)N1CCN(CCCOC2(C)SC(NC3CC4CCC3C4)=NC2=O)CC1 (stereo not shown) [CBK115612]	98.1477%
CN1CCN(c2nc3c(N)ncn(CC(O)CO)c-3n2)CC1 (stereo not shown) [CBK262571]	104.242%
CN1CC(C(=O)N2C3CCC2CC(c2ccc(F)cc2)C3)CC1=O (stereo not shown) [CBK283769]	127.867%
Nc1ncc(-c2occc2C=O)nc1-c1ccc(F)c(Cl)c1 [CBK064005]	119.627%

Compound	% of control remaining
COc1ccc2c(c1Br)C=C(n1ccnc1)CC2 [CBK017808]	82.9326%
COCC(=O)N1CCc2sccc2C1c1ccc(NCc2ccc(F)cc2)cc1 (stereo not shown) [CBK286445]	126.633%
CSc1ccc(CNCCc2c[nH]c3ccccc23)cc1 [CBK262126]	100%
CCCNc1nccnc1-c1cccc(CO)c1 [CBK088897]	153.039%
CN1CCCN(c2cnn(Cc3ccc(Cl)s3)c(=O)c2)CC1 [CBK307123]	89.2983%
O=C(O)c1ccc(/C=N/Nc2cccc3cccnc23)cc1 [CBK262372]	123.357%
Nc1ccc(CCNC(=O)c2cnc(-c3ccc(Cl)cc3)c(-c3ccco3)c2)cc1 [CBK036686]	105.763%
OCCNc1nc(O)cc(C(F)(F)F)n1 [CBK001804]	110.086%
Cc1ccc2c(c1)C(=O)NCC1(CCN(Cc3ccccc3)CC1)O2 [CBK285048]	127.69%
Cc1ccc(CN(Cc2cncn2C)C2CC(C)(C)NC(C)(C)C2)o1 [CBK283192]	118.945%
O=C(c1ccccn1)N1CCCC(c2cc3ccccc3cn2)C1 (stereo not shown) [CBK282832]	126.031%
Cc1nnnn1-c1cc(NC(=O)NCC2CCCO2)ccc1F (stereo not shown) [CBK305528]	149.315%
c1cnn(CCCNc2nc3nonc3nc2N2CCCCCC2)c1 [CBK307318]	108.523%
O=C1CCC(=O)N1CCOc1nccnc1OC1CCN(Cc2ccc(Cl)c(Cl)c2)CC1 [CBK084335]	110.036%
CN1CCN(C(c2ccc(O)cc2)c2nnnn2Cc2ccccc2)CC1 (stereo not shown) [CBK084719]	115.064%
Clc1ccc(COc2nccnc2OCC2CCCO2)cc1Cl (stereo not shown) [CBK161587]	119.632%
CN(C)S(=O)(=O)c1ccc(Cl)c(C(=O)Nc2cccc(O)c2)c1 [CBK265723]	84.284%
O=C(c1cncnc1)N1CCCc2ccccc21 [CBK200259]	105.786%
CN(C)S(=O)(=O)N1CCC(C(=O)O)(c2ccccc2)CC1 [CBK286681]	156.67%
O=C(Nc1nnc(-c2ccco2)o1)c1ccc2c(c1)CCCC2 [CBK287425]	178.378%
Cc1ccc(-c2nnc(N3CCN(S(=O)(=O)c4ccc(Cl)cc4)CC3)c3ccccc23)cc1 [CBK266759]	146.249%
CCOC(=O)C1(Cc2cc(-c3ccc(F)cc3)no2)CCCNC1 (stereo not shown) [CBK284579]	147.13%
CC(C)(c1ccccc1)c1ccc(OCc2ccc(S(=O)(=O)N3CCOCC3)cc2)cc1 [CBK267407]	153.162%
Cc1ccc(N(CC(=O)Nc2cc(Cl)ccc2C)S(C)(=O)=O)cc1 [CBK264030]	109.954%
CCN(CC)CCN1CCN(c2cc(-c3ccc(SC)cc3)ncn2)CC1 [CBK091203]	196.802%
c1cc(-c2ccc(OC3CCNCC3)cc2)c2cccnc2c1 [CBK103528T]	82.5661%

Random excerpt: two entries already listed.
Compound	% of control remaining
Cn1nc(C(Cc2ccccc2)NC(=O)c2ccco2)c2cccnc21 (stereo not shown) [CBK285223]	153.305%
O=C1CCCCC1SCn1nnc2ccccc21 (stereo not shown) [CBK011412]	110.627%
